Experiment [1] deals with Glutathione S-transferase (GST)-tagged Ube2s (not stated (human or mouse cDNA cloned)) (UniProt Q921J4). Kind of experiment: pull-down; purified GST-tagged Ube2s on glutathione-sepharose beads, incubated with purified His-tagged β-Catenin at 4 °C overnight; washed four times with lysis buffer; western blot with anti-β-Catenin and anti-GST; GST alone as control; both purified.

Amino acid sequences for entries named in this document (tags omitted). A change or cut given only in a name is not applied to a line headed by its entry.
UniProt Q921J4: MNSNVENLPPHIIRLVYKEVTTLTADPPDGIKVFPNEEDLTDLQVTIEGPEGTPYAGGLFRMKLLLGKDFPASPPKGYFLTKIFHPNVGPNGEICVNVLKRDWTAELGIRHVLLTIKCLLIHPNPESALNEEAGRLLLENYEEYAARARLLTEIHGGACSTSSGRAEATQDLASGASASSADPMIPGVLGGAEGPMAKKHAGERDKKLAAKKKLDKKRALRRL
UniProt Q16763: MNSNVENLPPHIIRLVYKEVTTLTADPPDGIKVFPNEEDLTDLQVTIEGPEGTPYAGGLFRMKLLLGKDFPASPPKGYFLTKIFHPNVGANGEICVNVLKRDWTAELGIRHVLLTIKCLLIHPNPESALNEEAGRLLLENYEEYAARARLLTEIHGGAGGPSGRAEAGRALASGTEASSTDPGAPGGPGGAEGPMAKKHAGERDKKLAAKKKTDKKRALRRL
UniProt A2A6Q5: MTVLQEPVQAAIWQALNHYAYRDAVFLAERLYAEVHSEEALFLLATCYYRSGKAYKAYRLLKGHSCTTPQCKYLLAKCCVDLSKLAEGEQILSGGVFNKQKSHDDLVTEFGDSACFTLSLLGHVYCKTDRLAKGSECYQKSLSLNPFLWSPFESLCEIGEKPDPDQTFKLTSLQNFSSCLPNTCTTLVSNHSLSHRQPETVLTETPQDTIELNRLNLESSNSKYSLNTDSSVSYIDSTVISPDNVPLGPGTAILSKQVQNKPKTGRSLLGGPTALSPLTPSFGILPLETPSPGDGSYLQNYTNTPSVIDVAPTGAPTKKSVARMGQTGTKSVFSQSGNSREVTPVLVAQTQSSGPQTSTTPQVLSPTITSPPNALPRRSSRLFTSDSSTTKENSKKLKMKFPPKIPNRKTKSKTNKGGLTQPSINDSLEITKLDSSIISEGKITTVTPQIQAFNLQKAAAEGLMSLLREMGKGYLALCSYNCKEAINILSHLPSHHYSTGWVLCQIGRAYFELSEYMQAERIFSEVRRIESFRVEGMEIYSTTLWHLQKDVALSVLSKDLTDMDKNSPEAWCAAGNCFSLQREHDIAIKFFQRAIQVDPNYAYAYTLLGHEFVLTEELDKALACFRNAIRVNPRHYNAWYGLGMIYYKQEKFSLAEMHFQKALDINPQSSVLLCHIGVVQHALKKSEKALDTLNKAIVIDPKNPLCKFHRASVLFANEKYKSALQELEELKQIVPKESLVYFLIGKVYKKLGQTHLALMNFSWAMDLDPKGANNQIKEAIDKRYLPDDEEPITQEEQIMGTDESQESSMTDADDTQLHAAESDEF
UniProt Q02248: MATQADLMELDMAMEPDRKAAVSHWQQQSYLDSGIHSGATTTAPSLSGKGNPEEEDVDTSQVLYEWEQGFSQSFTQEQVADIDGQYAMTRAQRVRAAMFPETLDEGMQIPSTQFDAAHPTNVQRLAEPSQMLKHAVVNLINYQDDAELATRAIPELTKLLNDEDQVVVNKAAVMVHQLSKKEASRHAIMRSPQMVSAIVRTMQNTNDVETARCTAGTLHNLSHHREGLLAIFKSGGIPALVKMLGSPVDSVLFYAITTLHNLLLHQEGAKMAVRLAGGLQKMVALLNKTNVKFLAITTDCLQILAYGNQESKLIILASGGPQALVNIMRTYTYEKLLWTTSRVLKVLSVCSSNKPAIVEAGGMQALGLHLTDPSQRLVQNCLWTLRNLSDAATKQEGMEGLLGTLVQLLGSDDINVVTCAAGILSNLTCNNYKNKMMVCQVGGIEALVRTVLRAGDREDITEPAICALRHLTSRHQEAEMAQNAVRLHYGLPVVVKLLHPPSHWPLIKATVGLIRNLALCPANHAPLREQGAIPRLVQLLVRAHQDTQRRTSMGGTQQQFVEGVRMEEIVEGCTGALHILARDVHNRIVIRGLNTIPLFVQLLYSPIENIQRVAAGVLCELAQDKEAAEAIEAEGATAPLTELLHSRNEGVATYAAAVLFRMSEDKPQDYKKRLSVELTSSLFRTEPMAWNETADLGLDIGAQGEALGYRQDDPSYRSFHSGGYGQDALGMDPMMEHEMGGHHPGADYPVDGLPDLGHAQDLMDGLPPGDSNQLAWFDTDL
UniProt P35222: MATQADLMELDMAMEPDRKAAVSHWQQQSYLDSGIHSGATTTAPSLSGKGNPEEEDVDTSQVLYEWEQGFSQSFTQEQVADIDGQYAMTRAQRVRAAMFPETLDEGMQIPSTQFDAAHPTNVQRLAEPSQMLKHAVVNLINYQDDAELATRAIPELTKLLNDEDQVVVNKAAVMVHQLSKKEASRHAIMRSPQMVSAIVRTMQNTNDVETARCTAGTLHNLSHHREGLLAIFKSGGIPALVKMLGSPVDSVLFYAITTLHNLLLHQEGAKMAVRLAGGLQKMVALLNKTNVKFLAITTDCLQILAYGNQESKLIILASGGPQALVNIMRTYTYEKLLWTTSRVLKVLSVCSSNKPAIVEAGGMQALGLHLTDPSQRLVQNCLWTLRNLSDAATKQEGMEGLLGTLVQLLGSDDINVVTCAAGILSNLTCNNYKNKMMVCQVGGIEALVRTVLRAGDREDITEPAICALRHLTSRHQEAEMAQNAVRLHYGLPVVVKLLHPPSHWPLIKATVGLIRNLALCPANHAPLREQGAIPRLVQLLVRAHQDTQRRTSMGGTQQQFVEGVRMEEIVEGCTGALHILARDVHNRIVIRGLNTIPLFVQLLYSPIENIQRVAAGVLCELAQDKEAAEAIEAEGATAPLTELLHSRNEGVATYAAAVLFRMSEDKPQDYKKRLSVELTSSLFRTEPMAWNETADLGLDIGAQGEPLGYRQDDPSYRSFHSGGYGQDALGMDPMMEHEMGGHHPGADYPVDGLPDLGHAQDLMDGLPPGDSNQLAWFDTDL

In experiment [2] the target is UBE2S, human, endogenous (human (endogenous in HCT116 and 293 cells)) (UniProt Q16763). Kind of experiment: co-IP; human embryonic kidney 293 cells.
Experiment [3] shares this target. Kind of experiment: co-IP; HCT116 cells; UBE2S and β-CATENIN.
Experiment [4] concerns the target Ub-conjugating enzyme E2S (Ube2s), mouse, endogenous (mouse (endogenous in mES cells and F9 cells)) (UniProt Q921J4). Kind of experiment: co-IP; whole cell extracts of mES cells; IP with the antibody against Ube2s or β-Catenin, western blot for the other; Protein-G beads, 4 °C overnight, NP40 lysis buffer washes.
The target in experiment [5] is Cdc27 subunit of APC/C (mouse (endogenous in mES cells)) (UniProt A2A6Q5). Kind of experiment: co-IP; mES cells; β-Catenin and Cdc27.
Experiment [6] has as its target Ub-conjugating enzyme E2S (Ube2s), mouse, endogenous (mouse (endogenous in mES cells and F9 cells)) (UniProt Q921J4). Kind of experiment: co-IP; pluripotent F9 teratoma cells.
The target is the same in experiment [7]. Kind of experiment: co-IP; cytoplasm and nuclear extracts of mES cells, each taken for co-IP.

These are yes or no findings as the source states them, for the method shown. For some of these results: Binding seen in cells or lysates may run through a third protein. Some results given as binding are weak or reduced against the parent protein; the word gives no strength.

With “His6-tagged β-Catenin (from UniProt Q02248 1-781)”, the binding result in experiment [1] was “binds”.

As to “β-CATENIN, human, endogenous (from UniProt P35222 1-781)”, the binding entry in experiment [2] and in experiment [3] was “binds” in each case.

“β-Catenin, mouse, endogenous (from UniProt Q02248 1-781)”: the binding entry in experiment [4], in experiment [5], in experiment [6] and in experiment [7] was “binds” throughout.

The record behind these values is paper PMC5908793.
